Assay [1] has as its target T1, Prp40FF1 (amino acids 129-201), Gal4-DBD fusion (Saccharomyces cerevisiae) (UniProt P33203).
T1 sequence: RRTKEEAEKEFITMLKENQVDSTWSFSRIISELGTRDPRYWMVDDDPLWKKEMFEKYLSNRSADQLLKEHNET
Description: two-hybrid; mapping: Prp40 FF domain constructs as Gal4DBD baits against full-length clones and fragments of Snu71 and Luc7 as preys.

Assay [2] has as its target T2, Prp40 (Prp40wt, amino acids 1-583) (Saccharomyces cerevisiae) (UniProt P33203).
T2 sequence: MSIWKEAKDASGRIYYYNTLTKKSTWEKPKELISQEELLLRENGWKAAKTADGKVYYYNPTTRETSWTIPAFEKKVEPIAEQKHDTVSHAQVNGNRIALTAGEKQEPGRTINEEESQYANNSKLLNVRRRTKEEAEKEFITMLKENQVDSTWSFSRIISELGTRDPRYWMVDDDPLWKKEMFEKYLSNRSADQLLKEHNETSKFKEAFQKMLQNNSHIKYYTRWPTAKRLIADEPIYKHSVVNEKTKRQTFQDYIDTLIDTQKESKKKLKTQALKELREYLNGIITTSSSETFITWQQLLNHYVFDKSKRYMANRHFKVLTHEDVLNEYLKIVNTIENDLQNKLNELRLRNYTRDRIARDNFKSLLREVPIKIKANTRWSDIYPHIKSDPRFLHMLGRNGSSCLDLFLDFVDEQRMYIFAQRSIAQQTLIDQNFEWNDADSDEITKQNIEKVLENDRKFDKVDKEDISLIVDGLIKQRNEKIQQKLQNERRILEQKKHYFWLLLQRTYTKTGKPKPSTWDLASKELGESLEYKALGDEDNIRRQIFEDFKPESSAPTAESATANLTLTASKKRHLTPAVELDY
Description: two-hybrid; systematic pairwise tests of all U1snRNP associated proteins with full-length bait and prey constructs.

For assay [3], the target named is T3, Prp40FF1-3 (amino acids 129-428), Gal4-DBD fusion (Saccharomyces cerevisiae) (UniProt P33203).
T3 sequence: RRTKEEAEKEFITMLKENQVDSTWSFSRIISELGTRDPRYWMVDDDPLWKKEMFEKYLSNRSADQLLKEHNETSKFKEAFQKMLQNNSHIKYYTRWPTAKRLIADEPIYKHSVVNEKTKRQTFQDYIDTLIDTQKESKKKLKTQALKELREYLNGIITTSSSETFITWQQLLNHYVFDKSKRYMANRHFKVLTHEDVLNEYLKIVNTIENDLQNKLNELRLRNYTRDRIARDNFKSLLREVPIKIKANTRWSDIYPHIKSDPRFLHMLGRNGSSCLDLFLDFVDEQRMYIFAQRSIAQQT
Description: two-hybrid; genome-wide screens with isolated Prp40 FF domains or combinations as baits against the prey array; data not shown.

Assay [4] deals with T4, Prp40FF1-4 (amino acids 129-560), Gal4-DBD fusion (Saccharomyces cerevisiae) (UniProt P33203).
T4 sequence: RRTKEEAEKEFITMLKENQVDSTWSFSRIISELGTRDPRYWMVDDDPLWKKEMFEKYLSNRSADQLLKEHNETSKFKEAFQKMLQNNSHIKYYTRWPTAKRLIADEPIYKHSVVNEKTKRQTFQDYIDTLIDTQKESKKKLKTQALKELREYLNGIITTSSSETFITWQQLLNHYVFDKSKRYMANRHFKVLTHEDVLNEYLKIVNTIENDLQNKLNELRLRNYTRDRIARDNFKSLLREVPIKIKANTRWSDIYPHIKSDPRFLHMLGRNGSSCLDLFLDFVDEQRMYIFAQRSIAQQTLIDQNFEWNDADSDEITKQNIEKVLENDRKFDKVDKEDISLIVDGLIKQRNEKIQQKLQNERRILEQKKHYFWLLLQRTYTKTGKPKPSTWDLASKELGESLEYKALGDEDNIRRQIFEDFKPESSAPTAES
Described as above.

In assay [5] the target is T5, Prp40FF2-3 (amino acids 196-428), Gal4-DBD fusion (Saccharomyces cerevisiae) (UniProt P33203).
T5 sequence: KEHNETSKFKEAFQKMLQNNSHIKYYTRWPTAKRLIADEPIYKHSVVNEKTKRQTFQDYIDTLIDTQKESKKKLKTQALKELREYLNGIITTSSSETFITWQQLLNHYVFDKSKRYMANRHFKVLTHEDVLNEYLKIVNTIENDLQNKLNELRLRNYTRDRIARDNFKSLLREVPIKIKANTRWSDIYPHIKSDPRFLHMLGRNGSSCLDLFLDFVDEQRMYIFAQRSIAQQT
The description is as above.

Assay [6] concerns the target T3, Prp40FF1-3 (amino acids 129-428), Gal4-DBD fusion (Saccharomyces cerevisiae). Put plainly: two-hybrid; mapping: Prp40 FF domain constructs as Gal4DBD baits against full-length clones and fragments of Snu71 and Luc7 as preys.
Assay [7] addresses T5, Prp40FF2-3 (amino acids 196-428), Gal4-DBD fusion (Saccharomyces cerevisiae). Described as above.
The target of assay [8] is T2, Prp40 (Prp40wt, amino acids 1-583) (Saccharomyces cerevisiae). Description: two-hybrid; genome-wide screen: Gal4DBD baits (full-length proteins, FF domain baits) mated to an array of most of the ~6,000 S. cerevisiae ORFs as Gal4AD fusions; positives re-arrayed and retested.
Assay [9] deals with T6, Snu71 (Snu71 wt, amino acids 1-620) (Saccharomyces cerevisiae), P53207.
T6 chain: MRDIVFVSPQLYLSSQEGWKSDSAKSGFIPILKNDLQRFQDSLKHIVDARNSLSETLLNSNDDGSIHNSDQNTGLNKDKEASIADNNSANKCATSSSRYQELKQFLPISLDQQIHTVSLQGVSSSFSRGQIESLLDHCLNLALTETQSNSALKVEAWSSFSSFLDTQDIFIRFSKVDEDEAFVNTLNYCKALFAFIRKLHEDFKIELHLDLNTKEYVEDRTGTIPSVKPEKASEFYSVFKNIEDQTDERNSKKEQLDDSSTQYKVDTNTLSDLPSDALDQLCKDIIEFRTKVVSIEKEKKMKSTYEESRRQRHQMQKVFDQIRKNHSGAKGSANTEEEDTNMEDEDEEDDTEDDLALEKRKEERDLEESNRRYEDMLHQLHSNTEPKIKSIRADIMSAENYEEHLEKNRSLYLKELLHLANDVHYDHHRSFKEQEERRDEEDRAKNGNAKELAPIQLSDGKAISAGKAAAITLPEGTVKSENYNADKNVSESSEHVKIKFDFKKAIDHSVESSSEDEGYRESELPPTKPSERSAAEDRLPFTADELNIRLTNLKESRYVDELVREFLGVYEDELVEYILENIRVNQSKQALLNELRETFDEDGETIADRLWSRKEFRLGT
Description: two-hybrid; systematic pairwise tests of all U1snRNP associated proteins with full-length bait and prey constructs. Particulars: remark: other sources report otherwise.

In assay [10] the target is T7, GST-Prp40FF1 (amino acids 129-201) (Saccharomyces cerevisiae, UniProt P33203 129-201).
T7 construct: Prp40, S. cerevisiae, residues 129-201 (Prp40FF1); also called GST-FF1; source: E. coli BL21, purified (glutathione Sepharose 4B)
T7 sequence (looked up): T1 sequence
Description: pull-down; GST-FF domain fusions on glutathione-Sepharose beads incubated with in vitro-translated 35S-labeled protein; 40 mM Hepes pH 8.0, 2.5 mM MgCl2, 0.1 mM EDTA, 1 mM DTT, 0.2% Triton-X-100, 100 mM NaCl; 2 h at 4°C; autoradiography; only the target purified.

In assay [11] the target is T8, GST-Prp40FF1-2 (amino acids 129-264) (Saccharomyces cerevisiae, UniProt P33203 129-264).
T8 construct: Prp40, S. cerevisiae, residues 129-264 (Prp40FF1-2); also called GST-FF1-2; source: E. coli BL21, purified (glutathione Sepharose 4B)
T8 sequence (looked up): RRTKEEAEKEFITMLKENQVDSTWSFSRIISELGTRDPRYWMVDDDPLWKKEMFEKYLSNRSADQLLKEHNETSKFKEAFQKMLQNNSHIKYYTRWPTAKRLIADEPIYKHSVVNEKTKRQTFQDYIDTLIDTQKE
Described as above.

Assay [12] deals with T9, GST-Prp40FF2 (amino acids 196-264) (Saccharomyces cerevisiae) (UniProt P33203).
T9 sequence: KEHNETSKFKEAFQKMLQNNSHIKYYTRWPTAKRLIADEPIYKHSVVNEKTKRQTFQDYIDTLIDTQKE
The assay is described as above.

No constants are given. Whether binding was seen depends on the method and setting. For part of these data: In cells and extracts the contact can be indirect. Some binding calls cover weakened binding; strength is not graded here. Tags and fused reporters may be left off the sequences shown.

B1: Luc7 II (C-terminal fragment of Luc7, aa 93–261), Gal4-AD fusion (domain or fragment, UniProt Q07508 93-261)
chain: FEREYLAILSRFVNECNGQISVALQNLKHTAEERMKIQQVTEELDVLDVRIGLMGQEIDSLIRADEVSMGMLQSVKLQELISKRKEVAKRVRNITENVGQSAQQKLQVCEVCGAYLSRLDTDRRLADHFLGKIHLGYVKMREDYDRLMKNNRTTNASKTATTLPGRRFV
For the molecule B1, the binding result in assay [1] is “binds”.

B2: Snu71 (Snu71 wt, amino acids 1-620) (protein, UniProt P53207 1-620)
chain: T6 chain
B2: the binding entry in assay [2], in assay [3], in [4], in [5], in [6] and in assay [7] was “binds” throughout. The binding entry in assay [8] is on record as “binds”.

B3: Luc7, full-length, two-hybrid fusion (protein, UniProt Q07508 1-261)
chain: MSTMSTPAAEQRKLVEQLMGRDFSFRHNRYSHQKRDLGLHDPKICKSYLVGECPYDLFQGTKQSLGKCPQMHLTKHKIQYEREVKQGKTFPEFEREYLAILSRFVNECNGQISVALQNLKHTAEERMKIQQVTEELDVLDVRIGLMGQEIDSLIRADEVSMGMLQSVKLQELISKRKEVAKRVRNITENVGQSAQQKLQVCEVCGAYLSRLDTDRRLADHFLGKIHLGYVKMREDYDRLMKNNRTTNASKTATTLPGRRFV
Turning to B3, the binding entry in assay [2], in assay [4] and in assay [8] was “binds” each time.

B4: Luc7, full-length, two-hybrid fusion, Q07508 1-261 (protein)
chain: B3 chain
Consider B4, for which, in assay [9], the binding result is recorded as “no binding”.

B5: Luc7, in vitro translated and 35S-labeled (protein, UniProt Q07508 1-261)
chain: B3 chain
modifications: [35S] methionine
With B5, the binding entry in assay [10] is “binds”; in assay [11], “binds”; in assay [12], “binds weakly”.

For the origin of these results see publication PMC2613882, “The FF domains of yeast U1 snRNP protein Prp40 mediate interactions with Luc7 and Snu71” (BMC Biochemistry, 2008).
